# Measurements taken from PubChem BioAssay AID504467 (National Center for Advancing Translational Sciences (NCATS), 2011).
# Among all 330,000 compounds or so, about 7,700 (2.3%) were called active. The shares of active, inactive and inconclusive entries below differ from those in the screen. Calls come from the whole dose curve; as a rule, active = well fitted inhibition curve with a large enough effect; inconclusive = small, poorly fitted or top-dose-only effect, or effect the other way; inactive = flat fitted curve, though single readings scatter. Potencies beside an inconclusive call are fits to weak or partial responses and may not hold up.
# Assay: qHTS screen for small molecules that inhibit ELG1-dependent DNA repair in human embryonic kidney (HEK293T) cells expressing luciferase-tagged ELG1; note: nearly all actives have a fitted effect of over 55% in size
# Conditions: HEK293T ELG1-luciferase reporter, luminescence, 16 h, DNA damage induced by 5-fluorouridine; series mostly up to 46.1 µM
# Summary of the method: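 Quantitative HTS, concentration-response format. 2,000 cells/well co-treated with 5-fluorouridine and compound, 16 hr in 5% CO2 at 37 °C; ONE-Glo luminescence read after 30 min.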
# Potency is the fitted concentration of half-maximal effect.
row,SMILES,Potency
1,O=P(C1=C(N2CCOCC2)/C(=C\c2ccccc2)CC1)(N1CCOCC1)N1CCOCC1,inactive
2,S=c1[nH]nc(-c2ccc3ccccc3n2)n1Cc1ccccc1,"inconclusive: 20.6 µM [activator, partial curve]"
3,Cc1c(Cl)cccc1NC(=S)NNc1ncc(C(F)(F)F)cc1Cl,"inconclusive: 4.61 µM [inhibitor, partial curve, poor fit]"
4,Cc1nc(CN(C)Cc2nc(Cc3cccc(F)c3)no2)cs1,"inconclusive: 32.6 µM [activator, partial curve, poor fit]"
5,COC(=O)C1CCN(C(=O)c2ccc(Cl)c(S(=O)(=O)NCc3ccco3)c2)CC1,inactive
6,COc1ccc(NC(=O)c2oc3ccccc3c2NC(=O)C(C)(C)C)cc1,"inconclusive: 11.6 µM [inhibitor, partial curve]"
7,CCOC(=O)C(c1ccccc1)C(Nc1cc(C(F)(F)F)cc(C(F)(F)F)c1)c1ccccn1 (stereo not given),inactive
8,COc1ccc(/C=C/c2cc(C(=O)O)c3ccccc3n2)cc1,"inconclusive: 0.517 µM [activator, partial curve]"
9,CCO[C@@H]1OC(C(=O)NCc2nc3ccccc3[nH]2)=C[C@H](c2csc3ccccc23)[C@H]1CCCO,"inconclusive: 18.3 µM [inhibitor, single point]"
10,CC1(C)Cc2c(C#N)c(NCC3CCCO3)nc(-c3ccco3)c2CO1 (stereo not given),"inconclusive: 11.6 µM [inhibitor, partial curve, poor fit]"
11,CS(=O)(=O)N(Cc1ccc(Cl)cc1)c1ccc(C(=O)N/N=C/c2cc3ccccc3nc2Cl)cc1,"inconclusive: 32.6 µM [inhibitor, partial curve, poor fit]"
12,Cc1ccc(OCCNS(=O)(=O)c2ccc(N3CCCC3=O)cc2)cc1C,"inconclusive: 32.6 µM [inhibitor, single point]"
13,O=C(Nc1ccc(-c2cn3c(n2)SCC3)cc1)c1ccco1,"inconclusive: 8.2 µM [activator, partial curve]"
14,Cc1ccc(CN2CCCNC2=O)cc1,"inconclusive: 18.4 µM [inhibitor, single point]"
15,Cc1ccc(OCc2ccoc2C(=O)O)cc1C,"inconclusive: 20.6 µM [activator, single point]"
16,Cc1cc(C(=O)Cn2nnc(-c3ccc(Cl)cc3)n2)c(C)n1CC1CCCO1 (stereo not given),"inconclusive: 20.6 µM [inhibitor, single point]"
17,Cc1cccc(NC(=S)NCC(c2cccnc2)N(C)C)c1C (stereo not given),"inconclusive: 23.1 µM [activator, partial curve, poor fit]"
18,CCOc1ccccc1N(CC(=O)Nc1cccc2ccccc12)S(C)(=O)=O,inactive
19,CCOc1ccc(NC(C)=O)cc1,inactive
20,CCN(CC)S(=O)(=O)c1cccc(C(=O)NC(C)C(c2cccs2)N2CCCC2)c1 (stereo not given),inactive
21,CN1C(=O)/C(=C/C=C2\SCCN2C)SC1=S,"inconclusive: 3.66 µM [activator, full curve]"
22,COc1ccccc1Cn1c(=O)c2ccccc2n2c(SCc3csc(C)n3)nnc12,"inconclusive: 17.8 µM [inhibitor, single point]"
23,Cc1c(C(=O)N2CCCCC2)c(S(=O)(=O)N2CCc3ccccc32)c(C)n1C,inactive

row,SMILES,Potency
1,O=C(Nc1cc(F)ccc1F)c1ccc(-n2cncn2)c([N+](=O)[O-])c1,inactive
2,CCOc1ccccc1C(=O)Nc1cc(Cl)ccc1O,"inconclusive: 1.84 µM [inhibitor, full curve, poor fit]"
3,COc1ccc(NC(=O)c2cc(F)cc(F)c2)cc1Cl,"inconclusive: 10.3 µM [activator, partial curve]"
4,O=C(COC(=O)/C=C/c1ccc(C(F)(F)F)cc1)NCC1CCCCC1,inactive
5,CC(C)(C)c1ccc(/C=C/C(=O)Nc2nncs2)cc1,"inconclusive: 2.06 µM [activator, full curve]"
6,COc1ccc(-c2nc(N3CCN(C)CC3)sc2-c2ccc(OC)cc2)cc1,inactive
7,COc1ccc(C(=O)OCC(=O)c2ccc(CNC(C)=O)s2)cc1,"inconclusive: 23.1 µM [activator, partial curve]"
8,COC(=O)Cc1c(C)c2ccc(OCC(=O)N3CCC(C)CC3)c(C)c2oc1=O,"inconclusive: 23.1 µM [inhibitor, partial curve]"
9,CCOC(=O)N1CCc2c(sc(NC(=O)C3COc4ccccc4O3)c2C(N)=O)C1 (stereo not given),"inconclusive: 29.1 µM [inhibitor, single point]"
10,CCc1cccc(NC(=O)c2cc(OC)c(OC)c(OC)c2)c1,inactive
11,N#C/C(=C\c1cc([N+](=O)[O-])c(N2CCOCC2)cc1N1CCOCC1)c1nc2ccccc2[nH]1,active: 20.6 µM
12,CCN(CC)S(=O)(=O)c1ccc(Nc2nc3ccccc3n3nnnc23)cc1,"inconclusive: 29.1 µM [inhibitor, single point]"
13,COc1ccc(-c2nnc(SCC(=O)c3cccs3)o2)c(OC)c1,"inconclusive: 20.6 µM [activator, partial curve]"
14,N#C/C(=N\Nc1ccc(Cl)cc1)C(=O)c1ccsc1,active: 2.31 µM
15,S=C(NCc1ccco1)Nc1ccc(Cl)cc1Cl,"inconclusive: 16.4 µM [activator, partial curve]"
16,COCCNC(=O)c1ccc(C2SCC(=O)N2CCc2ccccc2)cc1 (stereo not given),inactive
17,Cc1ccc(-c2nc(CN(C)Cc3cccc4cnccc34)c(C)o2)s1,"inconclusive: 18.3 µM [inhibitor, single point]"
18,O=c1oc2ccccc2c(N2CCOCC2)c1[N+](=O)[O-],inactive
19,CCn1cc(C(=O)N[C@H](C)c2ccccc2)c(=O)c2cc(F)c(N3CCN(C)CC3)cc21,"inconclusive: 23.1 µM [inhibitor, partial curve, poor fit]"
20,COc1cc(N)c(Cl)cc1C(=O)OCC(=O)NC(=O)NCc1ccco1,inactive
21,COc1cc(/C=N/NC(=O)CSc2ccccn2)ccc1O,"inconclusive: 32.6 µM [activator, single point]"
22,COc1ccc(OC)c(C2=Nn3c(nnc3-c3cc(OC)c(OC)c(OC)c3)SC2)c1,"inconclusive: 4.11 µM [inhibitor, partial curve]"

# Shown with tabs: part of the list above.
row	SMILES	Potency
5	CC(C)(C)c1ccc(/C=C/C(=O)Nc2nncs2)cc1	inconclusive: 2.06 µM [activator, full curve]
6	COc1ccc(-c2nc(N3CCN(C)CC3)sc2-c2ccc(OC)cc2)cc1	inactive
7	COc1ccc(C(=O)OCC(=O)c2ccc(CNC(C)=O)s2)cc1	inconclusive: 23.1 µM [activator, partial curve]
